According to PubChem BioAssay AID328 (DTP/NCI, 2004):
The list shows only some results of the screen, not a fair sample: it gathers tests that were run many times, whatever their T/C, doses with no T/C, and many T/C values between a quarter and a half above the control. Other doses and runs of a compound stand elsewhere. T/C: endpoint of the treated group in % of that of the vehicle group. Some doses have a count of surviving animals in place of a T/C: the source holds a T/C of zero for them, seemingly a mark for toxic or unscored doses. Some doses without a T/C left all or most animals alive at the check, yet need not have been tolerated: the source hardly ever lists a survival T/C far under the control, and the zero likely stands for such cases as well. Survivors were counted at the toxicity check, usually on the fifth day, unless a day is given; later deaths do not show. Schedules are NCI's codes, taken here to give the interval after Q, in days (D) or hours (H), and the number of doses after X. Some entries were tested several times; the results are listed from low to high. Signs of the kind (2×) count equal records among those shown. For survival time, this PubChem deposit counts one and a half times the control or more as active, and values a quarter to a half above the control carry no call in these data; other NCI protocols may use other cut-offs. Some T/C values are followed by the survivors on the day toxicity was checked, most often the fifth; where none is given, no animal had died by that day.

Test system: BDF1 mice, P388 leukemia ip, median survival T/C
Assay: NCI In Vivo Anticancer Drug Screen. Data for tumor model P388 Leukemia (intraperitoneal) in B6D2F1 (BDF1) mice
Details: T/C endpoint: median survival time, higher T/C = longer survival
In short: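 Mice carrying the transplantable tumour receive compound or vehicle. Survival is followed in each arm, and the treated measure is divided by the vehicle measure.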

[1] = dose: 200.0 mg/kg/injection, schedule: Q01DX009 (ip), vehicle: Klucel (hydroxypropylcellulose) (HPC)
[2] = dose: 400.0 mg/kg/injection, schedule: Q01DX009 (ip), vehicle: Klucel (hydroxypropylcellulose) (HPC)
[3] = dose: 400.0 mg/kg/injection, schedule: Q04DX002 (ip), vehicle: Klucel (hydroxypropylcellulose) (HPC)

Structure (SMILES): O=C1CN=C(c2ccc[nH]2)c2cc(Cl)ccc2N1
- T/C (dose: 200.0 mg/kg/injection, schedule: Q01DX001 (ip), vehicle: Klucel (hydroxypropylcellulose) (HPC), evaluated on day 35): 100 and 107 % of control
- survivor count (dose: 200.0 mg/kg/injection, schedule: Q01DX001 (ip), vehicle: Klucel (hydroxypropylcellulose) (HPC)): 0 of 6, 3 of 3, 6 of 6
- T/C (dose: 200.0 mg/kg/injection, schedule: Q01DX005 (ip), vehicle: Klucel (hydroxypropylcellulose) (HPC), evaluated on day 30): 90, 91, 92 [4 of 6 alive], 97, 100, 102, 105, 106, 107, 109, 116 [2 of 3 alive], 117 [2 of 3 alive], 120, 123, 125, 126 [5 of 6 alive], 127, 130, 132, 132 [4 of 6 alive], 133, 138, 140 [4 of 6 alive], 147 % of control
- T/C (dose: 200.0 mg/kg/injection, schedule: Q01DX005 (ip), vehicle: Klucel (hydroxypropylcellulose) (HPC), evaluated on day 35): 105 % of control
- survivor count (dose: 200.0 mg/kg/injection, schedule: Q01DX005 (ip), vehicle: Klucel (hydroxypropylcellulose) (HPC)): 0 of 3, 1 of 3, 3 of 6, 2 of 3, 5 of 6, 3 of 3
- T/C [1]: 91, 92, 95, 96, 100 (2×), 102, 104 (3×), 104 [2 of 3 alive], 105, 110, 111 (2×), 118, 119 [4 of 6 alive], 129, 131, 133, 136 [5 of 6 alive], 155, 162 % of control
- survivor count [1]: 0 of 3, 1 of 3, 2 of 6, 3 of 6, 2 of 3, 5 of 6, 3 of 3, 6 of 6
- T/C (dose: 200.0 mg/kg/injection, schedule: Q04DX002 (ip), vehicle: Klucel (hydroxypropylcellulose) (HPC), evaluated on day 30): 86, 95, 96, 96 [2 of 3 alive], 97, 99, 100, 101, 102, 103 (3×), 106, 107, 107 [2 of 3 alive], 108, 109, 110 (2×), 111, 112 (2×), 113 [5 of 6 alive], 114, 119, 125, 128 (2×), 130, 133, 150 % of control
- T/C (dose: 200.0 mg/kg/injection, schedule: Q04DX002 (ip), vehicle: Klucel (hydroxypropylcellulose) (HPC), evaluated on day 35): 106 % of control
- survivor count (dose: 200.0 mg/kg/injection, schedule: Q04DX002 (ip), vehicle: Klucel (hydroxypropylcellulose) (HPC)): 3 of 3 and 6 of 6
- T/C (dose: 200.0 mg/kg/injection, schedule: Q04DX003 (ip), vehicle: Klucel (hydroxypropylcellulose) (HPC), evaluated on day 30): 91, 91 [5 of 6 alive], 93, 94 (2×), 95 (2×), 96, 98, 98 [2 of 3 alive], 99 [5 of 6 alive], 100 (2×), 103 (3×), 104, 105, 106 (2×), 107, 108, 109 (2×), 113, 115, 118, 122, 130, 134, 144, 148 % of control
- T/C (dose: 200.0 mg/kg/injection, schedule: Q04DX003 (ip), vehicle: Klucel (hydroxypropylcellulose) (HPC), evaluated on day 35): 102 and 107 % of control
- survivor count (dose: 200.0 mg/kg/injection, schedule: Q04DX003 (ip), vehicle: Klucel (hydroxypropylcellulose) (HPC)): 6 of 6
- T/C (dose: 400.0 mg/kg/injection, schedule: Q01DX001 (ip), vehicle: Klucel (hydroxypropylcellulose) (HPC), evaluated on day 30): 95 [5 of 6 alive], 100 (3×), 101, 102 (2×), 104, 106, 107, 109 (3×), 109 [5 of 6 alive], 110, 113 (2×), 115, 116, 118 [4 of 6 alive], 123 % of control (2×)
- T/C (dose: 400.0 mg/kg/injection, schedule: Q01DX001 (ip), vehicle: Klucel (hydroxypropylcellulose) (HPC), evaluated on day 35): 110 and 129 % of control
- survivor count (dose: 400.0 mg/kg/injection, schedule: Q01DX001 (ip), vehicle: Klucel (hydroxypropylcellulose) (HPC)): 0 of 3, 1 of 3, 3 of 6, 2 of 3, 3 of 3
- T/C (dose: 400.0 mg/kg/injection, schedule: Q01DX005 (ip), vehicle: Klucel (hydroxypropylcellulose) (HPC), evaluated on day 30): 90, 97, 101, 108, 113, 130, 142, 148 % of control
- T/C (dose: 400.0 mg/kg/injection, schedule: Q01DX005 (ip), vehicle: Klucel (hydroxypropylcellulose) (HPC), evaluated on day 35): 134 % of control
- survivor count (dose: 400.0 mg/kg/injection, schedule: Q01DX005 (ip), vehicle: Klucel (hydroxypropylcellulose) (HPC)): 0 of 3, 0 of 6, 1 of 6, 1 of 3, 2 of 6, 3 of 6, 3 of 3
- T/C [2]: 93 [4 of 6 alive], 95 [2 of 3 alive], 100 [5 of 6 alive], 104 [2 of 3 alive], 105, 112, 113, 126, 141, 144 % of control
- survivor count [2]: 0 of 3, 0 of 6, 1 of 3, 2 of 6, 3 of 6, 2 of 3, 4 of 6, 5 of 6, 3 of 3, 6 of 6
- survivor count (dose: 400.0 mg/kg/injection, schedule: Q01DX009 (oral), vehicle: saline with Tween-80): 6 of 6
- T/C [3]: 88, 89, 94, 99 [2 of 3 alive], 101, 103, 106 (2×), 108, 109, 111, 112, 115 (3×), 116 [2 of 3 alive], 116 [5 of 6 alive], 122, 123 [2 of 3 alive], 125, 126, 126 [5 of 6 alive] (2×), 128, 130 (2×), 134 (2×), 148 % of control
- survivor count [3]: 0 of 3, 1 of 3, 4 of 6
- T/C (dose: 400.0 mg/kg/injection, schedule: Q04DX003 (ip), vehicle: Klucel (hydroxypropylcellulose) (HPC), evaluated on day 30): 90 [2 of 3 alive], 92, 93, 98, 99, 100, 101 (2×), 107, 108, 109, 109 [5 of 6 alive], 112, 113, 115, 116, 116 [5 of 6 alive], 118, 120, 121, 123, 130, 137, 139 % of control
- T/C (dose: 400.0 mg/kg/injection, schedule: Q04DX003 (ip), vehicle: Klucel (hydroxypropylcellulose) (HPC), evaluated on day 35): 91 % of control
- survivor count (dose: 400.0 mg/kg/injection, schedule: Q04DX003 (ip), vehicle: Klucel (hydroxypropylcellulose) (HPC)): 0 of 3, 1 of 6, 1 of 3, 2 of 3 (2×), 3 of 3, 6 of 6
- survivor count (dose: 800.0 mg/kg/injection, schedule: Q01DX009 (oral), vehicle: saline with Tween-80): 2 of 6
